Source: PubChem BioAssay AID504784 (Drosophila RNAi Screening Center, 2011)
Test: 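Genome-wide knock-down for genes giving too much or too little stored lipid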 (primary screen). System: Drosophila Kc167 embryonic cells. Knock-down reagent: long dsRNA against Drosophila genes, about 250 ng dsRNA per well. Time to read-out: 4 days. Treatment: cells fed 400 µM oleic acid bound to BSA. Read-out: 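Cells imaged and segmented; ratio of lipid droplet area to nuclear area, log-transformed, then normalised as a B-score over the screen; higher means more stored lipid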. Scale: droplet/nuclear area B-score: higher = more stored lipid (overstorage).
The deposit covers about 17,000 reagents; this is a random part of those with a known target gene and a result. 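Each column is one replicate's B-score; the combined score over replicates was not deposited, so single values may mislead.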 No sequences are given here.

target,dsRNA,"droplet/nuclear area B-score, replicate 1","droplet/nuclear area B-score, replicate 2","droplet/nuclear area B-score, replicate 3"
CG11590,DRSC19411,0.881,-0.514,
AstC-R2,DRSC10051,-1.37,0.0657,
Had1,DRSC20216,-0.306,0.172,
CG6878,DRSC10737,0.0217,-0.426,
Snrk,DRSC07192,-2,0.254,
Snrk,DRSC23332,0.596,0.901,
PLCXD,DRSC02427,-0.407,-2.22,0.204
fray,DRSC16950,-0.502,0.671,
jar,DRSC16974,0.0351,-0.0399,
alpha-PheRS,DRSC18224,-0.00298,1.1,-0.36
sut4,DRSC07703,-0.0221,-1.16,
mRpS22,DRSC14488,0.926,-1.03,
Srp54k,DRSC11289,0.616,0.472,
Dci,DRSC08360,-0.771,0.0445,
BomT2,DRSC06631,0.0868,-0.364,
Gem2,DRSC09721,-0.0237,0.174,0.0512
CG31272,DRSC16058,-1.54,-1.35,
CG5126,DRSC00680,2.46,1.34,

Records listed so far whose target name begins with C or c:
target,dsRNA,"droplet/nuclear area B-score, replicate 1","droplet/nuclear area B-score, replicate 2","droplet/nuclear area B-score, replicate 3"
CG11590,DRSC19411,0.881,-0.514,
CG6878,DRSC10737,0.0217,-0.426,
CG31272,DRSC16058,-1.54,-1.35,
CG5126,DRSC00680,2.46,1.34,

The results go on:
target,dsRNA,"droplet/nuclear area B-score, replicate 1","droplet/nuclear area B-score, replicate 2","droplet/nuclear area B-score, replicate 3"
CG34428,DRSC10119,-0.969,-1.53,
CG16852,DRSC01876,-0.391,-0.598,
Obp58c,DRSC04166,0.644,0.0571,
CG10918,DRSC20472,-1.4,0.635,
Ekar,DRSC17161,0.00805,0.866,
CG6171,DRSC15982,0.434,0.407,
CG31705,DRSC01991,-1.04,0.564,
JYalpha,DRSC17224,-1.17,-2.98,
CG5958,DRSC02915,2.01,0.15,
Erk7,DRSC18127,-0.00991,-1.65,0.962
Erk7,DRSC18227,0.138,-0.0803,-0.693
Erk7,DRSC21895,-0.748,-0.129,
hiro,DRSC08564,0.182,,
CG2493,DRSC02707,0.884,-0.259,
CtsL3,DRSC12171,-4.56,3,
Ranbp16,DRSC20160,0.446,0.606,
hec,DRSC19895,0.0453,-0.752,-1.02
CG10237,DRSC02029,0.651,-0.689,
CG2663,DRSC12314,-0.0145,0.891,
CG9114,DRSC20155,0.0725,-0.528,
ATPsynbetaL,DRSC10503,0.455,0.914,
CG13126,DRSC02222,0.619,-0.836,
CG3492,DRSC04373,0.642,0.0186,
CG17646,DRSC00507,-1.53,0.297,
Pc,DRSC11873,-1.52,-1.35,
wmd,DRSC04436,1.98,2.14,
CG11249,DRSC11645,1.14,-0.12,
Vps4,DRSC19338,1.2,0.544,
mRpS5,DRSC21380,2.15,0.0762,
Kebab,DRSC00827,-1.41,-0.0212,
Pfdn4,DRSC09761,0.635,0.0129,
mRpL21,DRSC11100,1.64,1.48,
opa,DRSC12384,1.1,-0.582,
opa,DRSC22563,-3.6,0.415,
opa,DRSC23152,-1.76,-1.11,
Kpc2,DRSC07635,-0.607,-2.11,
CG13946,DRSC00364,2.88,-1.62,
Ssl1,DRSC11634,0.851,-0.00312,-0.228
